Reference: US7351797 (dated 2008)

experiment: general procedure: Boc solid-phase peptide synthesis; -OCH2-Pam, MBHA, or Trt-protected mercaptopropionyl-Leu (TAMPAL) resin; HBTU, in situ neutralization; conditions: coupling step

Question: Which step yield does the source give for “LY-(SAOD)-AGCEYRIDRVRLFVDKLDNIAQVPRVGAA-HHHHHH” here?
Answer: 58% yield

Question: With “SAOD-KEKERPEISLPSDFEHIVGFDA-CTGEFTGMPEQWARLLQT” as the substance, how does the step yield read?
Answer: 70% yield

Question: For LY-(SAOD)-AGCRANK-NH2, which step yield is on record?
Answer: ˜85% yield
